By Kd is commonly meant the equilibrium constant for the complex coming apart.

These results are taken from patent US20230355711A1 (BAYLOR COLLEGE OF MEDICINE, published 2023).

The target of experiment [1] is T1, recombinant SARS-CoV-2 spike protein (S1S2ECD-His; Sino Biological) (SARS-CoV-2, UniProt P0DTC2 14-1213).
Experiment [2] has as its target T1, recombinant SARS-CoV-2 spike protein …. This is another data set of the same source.

Values joined by “and” are separate entries in the source; they are usually repeats but may differ in a detail not shown here. Identical values can stand only once. Like-named read-outs stand apart in the source and are kept apart here.

B1: recombinant human rod domain of vimentin (rhRod) (other, not shown: small tags and cut ends)
chain: FKNTRTNEKVELQELNDRFANYIDKVRFLEQQNKILLAELEQLKGQGKSRLGDLYEEEMRELRRQVDQLTNDKARVEVERDNLAEDIMRLREKLQEEMLQREEAENTLQSFRQDVDNASLARLDLERKVESLQEEIAFLKKLHEEEIQELQAQIQEQHVQIDVDVSKPDLTAALRDVRQQYESVAAKNLQEAEEWYKSKFADLSEAANRNNDALRQAKQESTEYRRQVQSLTCEVDALKGTNESLERQMREMEENFAVEAANYQDTIGRLQDEIQNMKEEMARHLREYQDLLNVKMALDIEIATYRKLLEGE
Take B1: the Kd was 500 nM and 340 nM in experiment [1]; 400 nM and 380 nM and 280 nM and 180 nM in experiment [2].
